According to paper PMC6345992:
No constants are given. Whether binding was seen depends on the method and setting. In cells and extracts the contact can be indirect. Some binding calls cover weakened binding; strength is not graded here.

The chains behind the UniProt entries cited, without tags or fusion partners.
UniProt P37238: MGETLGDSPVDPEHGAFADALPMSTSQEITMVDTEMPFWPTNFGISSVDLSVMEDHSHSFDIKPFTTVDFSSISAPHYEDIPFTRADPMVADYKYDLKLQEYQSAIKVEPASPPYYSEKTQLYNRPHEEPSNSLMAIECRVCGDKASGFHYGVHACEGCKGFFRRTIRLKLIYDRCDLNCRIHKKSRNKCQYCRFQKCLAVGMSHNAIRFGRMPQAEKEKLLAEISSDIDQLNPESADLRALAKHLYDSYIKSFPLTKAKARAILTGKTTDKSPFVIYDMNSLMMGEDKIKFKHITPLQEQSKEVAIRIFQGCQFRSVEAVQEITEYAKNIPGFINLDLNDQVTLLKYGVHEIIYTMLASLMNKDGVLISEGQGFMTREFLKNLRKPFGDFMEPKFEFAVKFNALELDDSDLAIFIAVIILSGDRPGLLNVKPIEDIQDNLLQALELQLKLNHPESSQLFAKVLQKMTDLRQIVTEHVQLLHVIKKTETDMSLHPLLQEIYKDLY
UniProt P05627: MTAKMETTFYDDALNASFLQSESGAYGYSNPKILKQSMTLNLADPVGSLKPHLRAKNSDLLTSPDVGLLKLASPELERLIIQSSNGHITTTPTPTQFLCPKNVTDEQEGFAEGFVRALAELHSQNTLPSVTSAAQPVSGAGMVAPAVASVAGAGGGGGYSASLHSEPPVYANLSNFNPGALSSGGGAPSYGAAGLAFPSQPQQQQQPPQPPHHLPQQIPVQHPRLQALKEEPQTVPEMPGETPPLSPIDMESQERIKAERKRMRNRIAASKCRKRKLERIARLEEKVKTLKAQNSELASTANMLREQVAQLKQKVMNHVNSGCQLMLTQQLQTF

Target: PPARγ (mouse (endogenous in TGEMs and iBMDM)) (UniProt P37238)
Test: co-IP; co-immunoprecipitation from TGEMs, endogenous proteins, western blot

- binding: binds
Substance: Jun (from UniProt P05627 1-334)
